Results are given in words; binding and its absence hold for the method and conditions named. In cells and extracts the contact can be indirect. Here binding means that the protein was enriched with, or labelled near, the bait; the list need not be complete.
Target: Myc-IRE1α (inositol-requiring enzyme 1α) (human) (UniProt O75460)
Assay: affinity purification with mass spectrometry; C28/I2 cells transfected with pcDNA3.1(−)-Myc-IRE1α, lysed in IP buffer after 48 h, anti-Myc antibody overnight at 4 °C, magnetic beads washed five times; label-free quantitative proteomics

Chains of the proteins cited; added tags and fusions are not shown. Residues count along the entry.
UniProt O75460, residues 19-977: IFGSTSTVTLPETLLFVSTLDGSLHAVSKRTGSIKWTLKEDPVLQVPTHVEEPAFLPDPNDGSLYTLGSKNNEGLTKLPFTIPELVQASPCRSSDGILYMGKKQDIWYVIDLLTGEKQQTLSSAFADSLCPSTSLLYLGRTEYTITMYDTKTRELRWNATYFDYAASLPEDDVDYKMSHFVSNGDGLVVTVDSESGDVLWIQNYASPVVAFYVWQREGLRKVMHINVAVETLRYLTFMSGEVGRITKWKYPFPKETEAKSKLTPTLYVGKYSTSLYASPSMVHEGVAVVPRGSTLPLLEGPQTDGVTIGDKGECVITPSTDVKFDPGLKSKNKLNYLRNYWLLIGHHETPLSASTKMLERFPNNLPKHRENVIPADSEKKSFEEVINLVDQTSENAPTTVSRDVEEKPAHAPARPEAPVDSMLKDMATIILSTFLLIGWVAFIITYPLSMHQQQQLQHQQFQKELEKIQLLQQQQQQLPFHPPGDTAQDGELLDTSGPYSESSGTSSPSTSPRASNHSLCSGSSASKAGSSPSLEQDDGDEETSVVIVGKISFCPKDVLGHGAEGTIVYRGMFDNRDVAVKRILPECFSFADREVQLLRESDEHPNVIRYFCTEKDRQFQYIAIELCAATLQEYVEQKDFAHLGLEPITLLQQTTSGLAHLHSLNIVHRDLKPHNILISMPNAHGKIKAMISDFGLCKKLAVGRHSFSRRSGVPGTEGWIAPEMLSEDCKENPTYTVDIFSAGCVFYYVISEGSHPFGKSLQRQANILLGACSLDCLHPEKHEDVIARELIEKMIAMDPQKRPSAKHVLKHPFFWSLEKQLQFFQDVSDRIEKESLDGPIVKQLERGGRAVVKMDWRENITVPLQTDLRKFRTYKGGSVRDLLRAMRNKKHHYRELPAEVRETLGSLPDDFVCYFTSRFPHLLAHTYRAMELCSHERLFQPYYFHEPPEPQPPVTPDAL
UniProt P28799, residues 18-593: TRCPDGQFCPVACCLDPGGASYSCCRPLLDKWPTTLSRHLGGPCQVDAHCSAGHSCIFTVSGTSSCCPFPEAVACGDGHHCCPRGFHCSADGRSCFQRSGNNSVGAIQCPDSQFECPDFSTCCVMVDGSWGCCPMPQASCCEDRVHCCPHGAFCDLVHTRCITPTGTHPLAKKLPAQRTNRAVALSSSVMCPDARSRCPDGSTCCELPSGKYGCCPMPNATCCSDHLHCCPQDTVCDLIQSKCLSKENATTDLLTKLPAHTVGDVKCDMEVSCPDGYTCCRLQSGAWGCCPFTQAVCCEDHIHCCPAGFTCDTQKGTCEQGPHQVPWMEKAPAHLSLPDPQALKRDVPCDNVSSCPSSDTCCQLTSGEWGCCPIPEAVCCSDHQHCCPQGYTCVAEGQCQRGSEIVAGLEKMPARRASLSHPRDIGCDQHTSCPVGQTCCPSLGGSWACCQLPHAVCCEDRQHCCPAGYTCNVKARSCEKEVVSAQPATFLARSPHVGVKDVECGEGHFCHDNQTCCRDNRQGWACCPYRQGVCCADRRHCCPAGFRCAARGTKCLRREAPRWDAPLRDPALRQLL

Substance: progranulin (PGRN) (from UniProt P28799 18-593)
- binding: binds
